Record: PubChem BioAssay AID1224826 (NIAID, 2016)
This is one part, drawn at random, of about 17,000 deposited reagents. About 1,110 of them (6.6%) count as active. 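Active means lowered or raised reporter signal; replicate intensities are raw and not normalised per plate.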 A number with no mark means an inactive call. Reagents against one gene are numbered here. Further read-outs or replicates are left out here.

Purpose: 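Genes that change LPS-induced Tnf promoter activity in mouse macrophages when knocked down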 (primary screen)
System: RAW264.7 G9 macrophages from mouse bearing reporters for p65 (GFP) and the Tnf promoter (mCherry)
Reagent: siRNA pool against mouse genes, 100 nM
Time to read-out: 16 h of LPS stimulation, after 2 days of siRNA transfection
Treatment: bacterial lipopolysaccharide (Salmonella minnesota R595), 10 ng/ml
Measurement: 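Imaged Tnf reporter mCherry in nuclei, minus background, normalised per plate to the median and expressed as robust z-scores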
Direction: Tnf reporter robust z-score: higher = stronger Tnf promoter reporter signal after LPS
Active means: 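a well counts as active at a score of -1.3 or below (Tlr4 knock-down control median) or above 3 (raised signal); controls and wells holding fewer than 50 cells are excluded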
Meaning of the calls: active = Tnf reporter clearly lowered or raised; inactive = no clear change in Tnf reporter

target	reagent no.	Tnf reporter robust z-score	fewer than 50 cells in well
Snap91 (synaptosomal-associated protein 91)	1	-1.22	enough cells in well
Gja1 (gap junction protein, alpha 1)	1	0.78	enough cells in well
Mix23 (mitochondrial matrix import factor 23)	1	-0.53	enough cells in well
Zeb1 (zinc finger E-box binding homeobox 1)	1	0.31	enough cells in well
Chrna6 (cholinergic receptor, nicotinic, alpha polypeptide 6)	1	-0.48	enough cells in well
Ano5 (anoctamin 5)	1	2.41	enough cells in well
Phf7 (PHD finger protein 7)	1	-1.48 (active)	enough cells in well
Gadd45g (growth arrest and DNA-damage-inducible 45 gamma)	1	-1.12	enough cells in well
Atf3 (activating transcription factor 3)	1		fewer than 50 cells per well; well left out of calls
Ppt1 (palmitoyl-protein thioesterase 1)	1	0.67	enough cells in well
Ppt1 (palmitoyl-protein thioesterase 1)	2		fewer than 50 cells per well; well left out of calls
Cirsr (corepressor of RBPJ and splicing regulator)	1	2.39	enough cells in well

Hits, of those listed so far:
target	reagent no.	Tnf reporter robust z-score	fewer than 50 cells in well
Phf7 (PHD finger protein 7)	1	-1.48 (active)	enough cells in well

Additional entries follow:
target	reagent no.	Tnf reporter robust z-score	fewer than 50 cells in well
Ifna13 (interferon alpha 13)	1	0.25	enough cells in well
Hoxb6 (homeobox B6)	1	-0.52	enough cells in well
Aar2 (AAR2 splicing factor homolog)	1	2.74	enough cells in well
Wdr55 (WD repeat domain 55)	1	-0.97	enough cells in well
Or8g24 (olfactory receptor family 8 subfamily G member 24)	1	-1.4 (active)	enough cells in well
Prss1 (serine protease 1 (trypsin 1))	1	0.95	enough cells in well
Prkaa1 (protein kinase, AMP-activated, alpha 1 catalytic subunit)	1	-0.64	enough cells in well
Ikzf2 (IKAROS family zinc finger 2)	1	-0.03	enough cells in well
Klrb1c (killer cell lectin-like receptor subfamily B member 1C)	1	1.21	enough cells in well
Ino80c (INO80 complex subunit C)	1	0.69	enough cells in well
Casq2 (calsequestrin 2)	1	-0.28	enough cells in well
Or51a42 (olfactory receptor family 51 subfamily A member 42)	1	0.83	enough cells in well
